Test results taken from publication PMC7162537.
Changes are numbered by the printed parent chain. These are yes or no findings as the source states them, for the method shown. In cells and extracts the contact can be indirect. Some binding calls cover weakened binding; strength is not graded here. For part of these data: Where a sequence is shown, tags or fusion partners need not be part of it.

By UniProt entry, the sequences of proteins in these tests, tags left out.
UniProt P54132: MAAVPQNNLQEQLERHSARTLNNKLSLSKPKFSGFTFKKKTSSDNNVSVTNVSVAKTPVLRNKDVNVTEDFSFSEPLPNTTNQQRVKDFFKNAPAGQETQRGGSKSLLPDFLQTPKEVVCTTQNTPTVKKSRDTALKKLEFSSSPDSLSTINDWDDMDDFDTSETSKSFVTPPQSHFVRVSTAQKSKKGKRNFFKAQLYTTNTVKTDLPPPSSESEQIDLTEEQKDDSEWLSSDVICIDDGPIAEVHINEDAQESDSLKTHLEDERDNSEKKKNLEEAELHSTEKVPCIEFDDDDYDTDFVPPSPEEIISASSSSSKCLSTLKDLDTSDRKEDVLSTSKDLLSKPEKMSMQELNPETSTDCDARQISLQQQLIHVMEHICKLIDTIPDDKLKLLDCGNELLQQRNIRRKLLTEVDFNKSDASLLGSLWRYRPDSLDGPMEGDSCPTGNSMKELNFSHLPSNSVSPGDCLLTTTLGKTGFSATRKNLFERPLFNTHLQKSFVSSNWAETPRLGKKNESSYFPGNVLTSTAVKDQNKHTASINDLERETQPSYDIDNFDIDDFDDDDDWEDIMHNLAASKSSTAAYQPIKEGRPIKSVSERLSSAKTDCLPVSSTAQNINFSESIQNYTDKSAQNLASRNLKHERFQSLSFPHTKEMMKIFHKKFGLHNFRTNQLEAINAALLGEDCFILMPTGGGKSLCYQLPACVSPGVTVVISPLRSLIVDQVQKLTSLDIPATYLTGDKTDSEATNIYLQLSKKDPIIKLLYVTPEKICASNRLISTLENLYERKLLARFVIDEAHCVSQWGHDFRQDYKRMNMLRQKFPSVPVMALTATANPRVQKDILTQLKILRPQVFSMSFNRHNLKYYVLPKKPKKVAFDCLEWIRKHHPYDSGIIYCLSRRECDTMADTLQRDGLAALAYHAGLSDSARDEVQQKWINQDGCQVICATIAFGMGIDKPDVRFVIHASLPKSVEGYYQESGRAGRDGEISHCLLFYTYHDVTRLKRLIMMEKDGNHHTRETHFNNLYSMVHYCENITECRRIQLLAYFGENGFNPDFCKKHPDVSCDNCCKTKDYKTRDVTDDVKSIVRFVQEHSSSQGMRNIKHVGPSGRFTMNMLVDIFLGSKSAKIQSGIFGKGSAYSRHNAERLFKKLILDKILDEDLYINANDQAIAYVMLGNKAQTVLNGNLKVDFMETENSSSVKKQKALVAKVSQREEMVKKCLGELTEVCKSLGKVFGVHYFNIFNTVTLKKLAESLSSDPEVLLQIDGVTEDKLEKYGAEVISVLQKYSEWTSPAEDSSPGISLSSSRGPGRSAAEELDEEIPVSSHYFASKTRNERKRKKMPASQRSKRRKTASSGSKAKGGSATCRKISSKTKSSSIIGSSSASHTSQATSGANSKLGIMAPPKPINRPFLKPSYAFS

Experiments:
[1] = target: T1, FANCJ K1249R-HA-6xHis (human) (UniProt Q9BX63); assay: co-IP; FANCJ depleted ER-AsiSI U2OS cells expressing shRNA resistant FANCJ-HA-6xHis (WT or mutants), 300 nM 4-OHT for 4 h; nuclear extracts precipitated with antibodies against the HA tag; blots for endogenous partners
T1 sequence: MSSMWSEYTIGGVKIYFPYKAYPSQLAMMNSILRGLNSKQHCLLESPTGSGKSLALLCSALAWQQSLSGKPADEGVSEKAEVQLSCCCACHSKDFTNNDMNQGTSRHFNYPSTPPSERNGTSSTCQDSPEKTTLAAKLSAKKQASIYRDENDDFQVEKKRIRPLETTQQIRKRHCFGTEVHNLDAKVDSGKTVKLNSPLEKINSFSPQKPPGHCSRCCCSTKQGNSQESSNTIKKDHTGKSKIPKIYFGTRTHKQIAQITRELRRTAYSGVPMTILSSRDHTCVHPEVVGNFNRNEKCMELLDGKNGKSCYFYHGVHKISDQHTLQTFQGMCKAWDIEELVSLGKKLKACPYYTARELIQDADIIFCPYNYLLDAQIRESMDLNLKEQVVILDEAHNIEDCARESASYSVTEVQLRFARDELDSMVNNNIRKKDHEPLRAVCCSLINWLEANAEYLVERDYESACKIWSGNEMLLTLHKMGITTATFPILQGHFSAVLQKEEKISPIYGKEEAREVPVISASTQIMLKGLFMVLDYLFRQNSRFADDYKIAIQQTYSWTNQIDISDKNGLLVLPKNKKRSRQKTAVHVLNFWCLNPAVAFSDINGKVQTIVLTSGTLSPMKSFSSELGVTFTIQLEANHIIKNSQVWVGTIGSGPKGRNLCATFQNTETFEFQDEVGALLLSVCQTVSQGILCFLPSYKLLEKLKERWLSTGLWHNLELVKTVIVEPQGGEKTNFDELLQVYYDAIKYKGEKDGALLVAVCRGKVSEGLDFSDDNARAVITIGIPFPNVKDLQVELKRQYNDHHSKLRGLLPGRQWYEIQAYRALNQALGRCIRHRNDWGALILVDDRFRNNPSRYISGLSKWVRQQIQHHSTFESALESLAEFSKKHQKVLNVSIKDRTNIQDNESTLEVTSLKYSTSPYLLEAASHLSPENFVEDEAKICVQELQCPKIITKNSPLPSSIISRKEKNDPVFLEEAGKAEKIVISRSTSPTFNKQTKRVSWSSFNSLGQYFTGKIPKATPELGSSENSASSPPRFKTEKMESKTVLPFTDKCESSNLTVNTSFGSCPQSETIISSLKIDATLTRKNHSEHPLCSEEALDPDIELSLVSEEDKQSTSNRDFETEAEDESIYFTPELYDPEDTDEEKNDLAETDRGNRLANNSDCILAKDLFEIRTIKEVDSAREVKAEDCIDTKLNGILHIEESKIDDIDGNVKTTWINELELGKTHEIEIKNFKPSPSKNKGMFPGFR

[2] = target: T2, FANCJ S990A-HA-6xHis (human) (UniProt Q9BX63); assay: as above
T2 sequence: T1 sequence with S990A, R1249K

[3] = target: T3, FANCJ helicase (human (endogenous in U2OS)) (UniProt Q9BX63); assay: co-IP; endogenous proteins; nuclear extracts of ER-AsiSI U2OS cells precipitated with antibodies against FANCJ, BRCA1 or CtIP, Protein A/G beads; 300 nM 4-OHT for 4 h (FANCJ IP also before 4-OHT); also in FANCJ depleted or BRCA1 depleted cells; lysis buffer 20 mM Tris-HCl pH 7.5, 100 mM NaCl, 1% NP-40 with Benzonase; 4°C
T3 sequence: T1 sequence with R1249K

binding [1]: binds
binding [2]: binds
binding [3]: binds
Substance: BLM helicase (from UniProt P54132 1-1417)
